Results are given in words; binding and its absence hold for the method and conditions named. Binding seen in cells or lysates may run through a third protein. Some entries that bind do so weakly or less than the wild type.

Chains of the proteins cited; added tags and fusions are not shown. Residues count along the entry.
UniProt P35968, residues 20-1356: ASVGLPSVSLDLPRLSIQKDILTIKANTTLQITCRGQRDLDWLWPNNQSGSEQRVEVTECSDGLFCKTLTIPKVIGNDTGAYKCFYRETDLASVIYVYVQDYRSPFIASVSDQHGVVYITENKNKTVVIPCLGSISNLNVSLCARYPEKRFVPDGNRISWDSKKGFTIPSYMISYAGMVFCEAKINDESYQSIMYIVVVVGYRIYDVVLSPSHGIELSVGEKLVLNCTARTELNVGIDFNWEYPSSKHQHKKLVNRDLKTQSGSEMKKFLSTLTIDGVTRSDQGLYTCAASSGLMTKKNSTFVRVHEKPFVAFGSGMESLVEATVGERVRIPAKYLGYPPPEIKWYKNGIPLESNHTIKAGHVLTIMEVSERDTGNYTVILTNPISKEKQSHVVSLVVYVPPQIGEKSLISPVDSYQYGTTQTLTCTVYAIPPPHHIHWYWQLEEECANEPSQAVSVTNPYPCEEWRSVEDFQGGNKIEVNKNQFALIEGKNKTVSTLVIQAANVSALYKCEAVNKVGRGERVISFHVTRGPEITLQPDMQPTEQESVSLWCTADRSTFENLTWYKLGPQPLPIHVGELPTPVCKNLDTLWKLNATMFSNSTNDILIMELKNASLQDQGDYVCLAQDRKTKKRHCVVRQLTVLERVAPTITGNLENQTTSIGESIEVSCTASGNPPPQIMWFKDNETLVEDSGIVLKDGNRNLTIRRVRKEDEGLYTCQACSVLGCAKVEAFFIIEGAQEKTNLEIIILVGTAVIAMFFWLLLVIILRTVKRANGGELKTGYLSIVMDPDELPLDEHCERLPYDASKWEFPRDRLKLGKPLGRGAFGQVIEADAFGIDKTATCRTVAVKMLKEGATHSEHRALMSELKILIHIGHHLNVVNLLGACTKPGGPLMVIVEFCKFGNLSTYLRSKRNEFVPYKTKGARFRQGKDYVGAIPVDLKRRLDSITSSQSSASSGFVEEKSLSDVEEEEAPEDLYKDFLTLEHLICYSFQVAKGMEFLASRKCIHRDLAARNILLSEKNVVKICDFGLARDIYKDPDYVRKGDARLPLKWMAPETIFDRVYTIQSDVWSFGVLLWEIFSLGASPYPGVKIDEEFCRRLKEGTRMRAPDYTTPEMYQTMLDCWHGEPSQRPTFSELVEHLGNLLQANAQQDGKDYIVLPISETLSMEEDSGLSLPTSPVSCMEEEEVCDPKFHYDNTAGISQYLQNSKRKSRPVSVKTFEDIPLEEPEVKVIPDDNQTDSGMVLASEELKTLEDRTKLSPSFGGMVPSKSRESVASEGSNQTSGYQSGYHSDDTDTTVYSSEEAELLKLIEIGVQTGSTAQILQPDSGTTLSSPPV

Test [1] addresses VEGFR2 (human (endogenous in HUVEC)) (UniProt P35968). The experiment in a line: co-IP; HUVEC lysates in TBS-Nonidet P-40 lysis buffer (20 mM Tris pH 7.4, 150 mM NaCl, 1% NP-40), specific antibodies 12 h at 4 °C, protein G magnetic beads, blots; reciprocal; cells treated with VEGFa, VEGFa/6G, anti-VEGFA antibody, sorafenib, Ki8751 or siRNAs against VEGFR2, VE-cad, β-catenin.
The target in test [2] is T1, VE-cadherin (human (endogenous in HUVEC)), P33151.
T1 chain: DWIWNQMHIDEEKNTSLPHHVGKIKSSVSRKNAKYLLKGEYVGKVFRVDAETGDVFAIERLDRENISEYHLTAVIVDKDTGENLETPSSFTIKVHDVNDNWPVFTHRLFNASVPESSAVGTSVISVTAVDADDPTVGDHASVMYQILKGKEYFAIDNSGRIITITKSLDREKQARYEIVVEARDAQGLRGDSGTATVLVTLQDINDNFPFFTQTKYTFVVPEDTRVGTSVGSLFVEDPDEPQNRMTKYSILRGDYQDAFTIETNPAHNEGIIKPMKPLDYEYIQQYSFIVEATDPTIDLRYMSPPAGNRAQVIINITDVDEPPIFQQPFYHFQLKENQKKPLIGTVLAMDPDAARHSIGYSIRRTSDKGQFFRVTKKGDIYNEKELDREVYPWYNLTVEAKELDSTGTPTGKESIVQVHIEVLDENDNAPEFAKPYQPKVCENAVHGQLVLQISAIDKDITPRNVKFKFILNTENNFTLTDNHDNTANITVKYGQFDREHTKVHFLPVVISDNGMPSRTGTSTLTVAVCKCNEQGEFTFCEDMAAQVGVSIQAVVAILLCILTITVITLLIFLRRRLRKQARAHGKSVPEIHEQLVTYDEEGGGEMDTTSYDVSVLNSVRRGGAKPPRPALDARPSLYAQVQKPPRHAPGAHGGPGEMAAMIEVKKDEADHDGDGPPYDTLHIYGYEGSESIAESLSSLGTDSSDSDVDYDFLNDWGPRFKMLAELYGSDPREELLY
The description is as above. As to conditions: remark: other sources report otherwise.

On to β-catenin (from UniProt P35222 1-781), for which, in test [1], the binding entry is “binds”.

B1: β-catenin, P35222 1-781 (protein)
chain: MATQADLMELDMAMEPDRKAAVSHWQQQSYLDSGIHSGATTTAPSLSGKGNPEEEDVDTSQVLYEWEQGFSQSFTQEQVADIDGQYAMTRAQRVRAAMFPETLDEGMQIPSTQFDAAHPTNVQRLAEPSQMLKHAVVNLINYQDDAELATRAIPELTKLLNDEDQVVVNKAAVMVHQLSKKEASRHAIMRSPQMVSAIVRTMQNTNDVETARCTAGTLHNLSHHREGLLAIFKSGGIPALVKMLGSPVDSVLFYAITTLHNLLLHQEGAKMAVRLAGGLQKMVALLNKTNVKFLAITTDCLQILAYGNQESKLIILASGGPQALVNIMRTYTYEKLLWTTSRVLKVLSVCSSNKPAIVEAGGMQALGLHLTDPSQRLVQNCLWTLRNLSDAATKQEGMEGLLGTLVQLLGSDDINVVTCAAGILSNLTCNNYKNKMMVCQVGGIEALVRTVLRAGDREDITEPAICALRHLTSRHQEAEMAQNAVRLHYGLPVVVKLLHPPSHWPLIKATVGLIRNLALCPANHAPLREQGAIPRLVQLLVRAHQDTQRRTSMGGTQQQFVEGVRMEEIVEGCTGALHILARDVHNRIVIRGLNTIPLFVQLLYSPIENIQRVAAGVLCELAQDKEAAEAIEAEGATAPLTELLHSRNEGVATYAAAVLFRMSEDKPQDYKKRLSVELTSSLFRTEPMAWNETADLGLDIGAQGEPLGYRQDDPSYRSFHSGGYGQDALGMDPMMEHEMGGHHPGADYPVDGLPDLGHAQDLMDGLPPGDSNQLAWFDTDL
Regarding B1, the binding result in test [2] was “binds”.
